Experimental data: the supplement of paper PMC8728848
The list shows a part of the results.

Experiments:
Assay in all cases: glycan array binding signal (z-score within array); higher = stronger binding
Settings in all cases: glycan notation: IUPAC condensed, linker removed
[1] = target: GlcNAc(b1-3)Gal(b1-4)GlcNAc(b1-3)Gal(b1-4)GlcNAc(b1-2)Man(a1-3)[GlcNAc(b1-3)Gal(b1-4)GlcNAc(b1-3)Gal(b1-4)GlcNAc(b1-2)Man(a1-6)]Man(b1-4)GlcNAc(b1-4)[Fuc(a1-6)]GlcNAc
In short: (§1)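 The binding signal is a Z-score computed within each array. Data were drawn from 3228 arrays in the Consortium for Functional Glycomics database, restricted to those with a known protein sequence. Scores were averaged over arrays of the same protein sequence at different concentrations or buffers, and over linkers, and negative values can be taken as non-binding.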

[2] = target: GlcNAc(b1-3)Gal(b1-4)GlcNAc(b1-3)Gal(b1-4)GlcNAc(b1-2)[GlcNAc(b1-3)Gal(b1-4)GlcNAc(b1-3)Gal(b1-4)GlcNAc(b1-6)]Man(a1-6)[GlcNAc(b1-3)Gal(b1-4)GlcNAc(b1-3)Gal(b1-4)GlcNAc(b1-2)Man(a1-3)]Man(b1-4)GlcNAc(b1-4)[Fuc(a1-6)]GlcNAc
In short: as §1

[3] = target: GlcNAc(b1-3)Gal(b1-4)GlcNAc(b1-3)Gal(b1-4)GlcNAc(b1-3)Gal(b1-4)GlcNAc(b1-2)Man(a1-3)[GlcNAc(b1-3)Gal(b1-4)GlcNAc(b1-3)Gal(b1-4)GlcNAc(b1-3)Gal(b1-4)GlcNAc(b1-2)Man(a1-6)]Man(b1-4)GlcNAc(b1-4)GlcNAc
In short: as §1

[4] = target: GlcNAc(b1-3)Gal(b1-4)GlcNAc(b1-3)Gal(b1-4)GlcNAc(b1-3)Gal(b1-4)GlcNAc(b1-2)Man(a1-3)[GlcNAc(b1-3)Gal(b1-4)GlcNAc(b1-3)Gal(b1-4)GlcNAc(b1-3)Gal(b1-4)GlcNAc(b1-2)Man(a1-6)]Man(b1-4)GlcNAc(b1-4)[Fuc(a1-6)]GlcNAc
In short: as §1

[5] = target: GlcNAc(b1-3)Gal(b1-4)GlcNAc(b1-3)Gal(b1-4)GlcNAc(b1-3)Gal(b1-4)GlcNAc(b1-2)[GlcNAc(b1-3)Gal(b1-4)GlcNAc(b1-3)Gal(b1-4)GlcNAc(b1-3)Gal(b1-4)GlcNAc(b1-6)]Man(a1-6)[GlcNAc(b1-3)Gal(b1-4)GlcNAc(b1-3)Gal(b1-4)GlcNAc(b1-3)Gal(b1-4)GlcNAc(b1-2)Man(a1-3)]Man(b1-4)GlcNAc(b1-4)[Fuc(a1-6)]GlcNAc
In short: as §1

[6] = target: GlcNAc(b1-3)Gal(b1-4)GlcNAc(b1-3)Gal(b1-4)GlcNAc(b1-3)Gal(b1-4)GlcNAc(b1-3)Gal(b1-4)GlcNAc(b1-2)Man(a1-3)[GlcNAc(b1-3)Gal(b1-4)GlcNAc(b1-3)Gal(b1-4)GlcNAc(b1-3)Gal(b1-4)GlcNAc(b1-3)Gal(b1-4)GlcNAc(b1-2)Man(a1-6)]Man(b1-4)GlcNAc(b1-4)GlcNAc
In short: as §1

[7] = target: GlcNAc(b1-3)Gal(b1-4)GlcNAc(b1-3)Gal(b1-4)GlcNAc(b1-3)Gal(b1-4)GlcNAc(b1-3)Gal(b1-4)GlcNAc(b1-2)Man(a1-3)[GlcNAc(b1-3)Gal(b1-4)GlcNAc(b1-3)Gal(b1-4)GlcNAc(b1-3)Gal(b1-4)GlcNAc(b1-3)Gal(b1-4)GlcNAc(b1-2)Man(a1-6)]Man(b1-4)GlcNAc(b1-4)[Fuc(a1-6)]GlcNAc
In short: as §1

[8] = target: GlcNAc(b1-3)Gal(b1-4)GlcNAc(b1-3)Gal(b1-4)GlcNAc(b1-3)Gal(b1-4)GlcNAc(b1-3)Gal(b1-4)GlcNAc(b1-2)[GlcNAc(b1-3)Gal(b1-4)GlcNAc(b1-3)Gal(b1-4)GlcNAc(b1-3)Gal(b1-4)GlcNAc(b1-3)Gal(b1-4)GlcNAc(b1-6)]Man(a1-6)[GlcNAc(b1-3)Gal(b1-4)GlcNAc(b1-3)Gal(b1-4)GlcNAc(b1-3)Gal(b1-4)GlcNAc(b1-3)Gal(b1-4)GlcNAc(b1-2)Man(a1-3)]Man(b1-4)GlcNAc(b1-4)[Fuc(a1-6)]GlcNAc
In short: as §1

[9] = target: GlcNAc(b1-3)Gal(b1-4)GlcNAc(b1-3)Gal(b1-4)GlcNAc(b1-3)GalNAc
In short: as §1

[10] = target: GlcNAc(b1-3)Gal(b1-4)GlcNAc(b1-3)GalNAc
In short: as §1

[11] = target: GlcNAc(b1-3)Gal(b1-4)GlcNAc(b1-3)[GlcNAc(b1-3)Gal(b1-4)GlcNAc(b1-3)]GalNAc
In short: as §1

[12] = target: GlcNAc(b1-3)Gal(b1-4)GlcNAc(b1-6)[Gal(b1-3)]GalNAc
In short: as §1

[13] = target: GlcNAc(b1-3)Gal(b1-4)GlcNAc(b1-6)[GlcNAc(b1-3)Gal(b1-3)]GalNAc
In short: as §1

[14] = target: GlcNAc(b1-3)Gal(b1-4)GlcNAc(b1-6)[GlcNAc(b1-3)]Gal(b1-4)GlcNAc
In short: as §1

GlcNAc(b1-3)GalNAc = target: GlcNAc(b1-3)GalNAc
In short: as §1

GlcNAc(b1-3)Man = target: GlcNAc(b1-3)Man
In short: as §1

[15] = target: GlcNAc(b1-3)[GlcNAc(b1-4)][GlcNAc(b1-6)]GlcNAc
In short: as §1

[16] = target: GlcNAc(b1-3)[GlcNAc(b1-6)]Gal(b1-4)GlcNAc
In short: as §1

[17] = target: GlcNAc(b1-3)[GlcNAc(b1-6)]GalNAc
In short: as §1

[18] = target: GlcNAc(b1-4)Gal(b1-4)GlcNAc
In short: as §1

GlcNAc(b1-4)GlcNAc = target: GlcNAc(b1-4)GlcNAc
In short: as §1

[19] = target: GlcNAc(b1-4)GlcNAc(b1-4)GlcNAc
In short: as §1

[20] = target: GlcNAc(b1-4)GlcNAc(b1-4)GlcNAc(b1-4)GlcNAc(b1-4)GlcNAc
In short: as §1

[21] = target: GlcNAc(b1-4)GlcNAc(b1-4)GlcNAc(b1-4)GlcNAc(b1-4)GlcNAc(b1-4)GlcNAc
In short: as §1

[22] = target: GlcNAc(b1-4)[GlcNAc(b1-6)]GalNAc
In short: as §1

[23] = target: GlcNAc(b1-6)Gal(b1-4)GlcNAc
In short: as §1

GlcNAc(b1-6)GalNAc = target: GlcNAc(b1-6)GalNAc
In short: as §1

[24] = target: GlcNAc6S(b1-3)Gal(b1-4)GlcNAc
In short: as §1

Kdn(a2-3)Gal(b1-3)GalNAc = target: Kdn(a2-3)Gal(b1-3)GalNAc
In short: as §1

Kdn(a2-3)Gal(b1-3)GlcNAc = target: Kdn(a2-3)Gal(b1-3)GlcNAc
In short: as §1

Kdn(a2-3)Gal(b1-4)Glc = target: Kdn(a2-3)Gal(b1-4)Glc
In short: as §1

Kdn(a2-3)Gal(b1-4)GlcNAc = target: Kdn(a2-3)Gal(b1-4)GlcNAc
In short: as §1

[25] = target: Kdn(a2-3)Gal(b1-4)[Fuc(a1-3)]GlcNAc
In short: as §1

Kdn(a2-6)Gal(b1-4)GlcNAc = target: Kdn(a2-6)Gal(b1-4)GlcNAc
In short: as §1

[26] = target: Man(a1-2)Man(a1-2)Man(a1-3)Man
In short: as §1

[27] = target: Man(a1-2)Man(a1-2)Man(a1-6)[Man(a1-3)]Man
In short: as §1

Man(a1-2)Man(a1-3)Man = target: Man(a1-2)Man(a1-3)Man
In short: as §1

[28] = target: Man(a1-2)Man(a1-3)[Man(a1-2)Man(a1-6)]Man
In short: as §1

B1: EUL D1A (Oryza sativa) (protein)
chain: MFGFGHHHNQAPAAPSDPNQIFKIFCRANENYCLTVRDSAVVLAPVNPKDEHQHWFKDMRFSTKVKDGEGMPAFALVNKATGLAVKHSLGQSHPVKLVPFNPEYEDASVLWTESKDVGKGFRCIRMVNNTRLNLDAFHGDKDHGGVRDGTTVVLWEWCKGDNQSWKILPWGPEAHSSSPGAATACTIGGVPVHTVRVFSAAGEDYCLTVRNGTACLAPKNPRDDYQHWIKDMRHSNKIRDEEGYPAFALVNKVTGEAIKHSTGQGHPVKLVPYNPEYQDESVLWTESKDVGKGFRCIRMVNNIYLNFDAFHGDKDHGGIHDGTEIVLWKWCEGDNQRWKILPWILEQKLISEEDLNSAVDHHHHHH
glycan array binding signal (z-score) [1]: 0.655 | glycan array binding signal (z-score) [2]: 1.36 | glycan array binding signal (z-score) [3]: -0.584 | glycan array binding signal (z-score) [4]: 1.55 | glycan array binding signal (z-score) [5]: 1.32 | glycan array binding signal (z-score) [6]: 1.19 | glycan array binding signal (z-score) [7]: 1.58 | glycan array binding signal (z-score) [8]: 0.277 | glycan array binding signal (z-score) [9]: 1.48 | glycan array binding signal (z-score) [10]: 0.573 | glycan array binding signal (z-score) [11]: -0.477 | glycan array binding signal (z-score) [12]: 0.953 | glycan array binding signal (z-score) [13]: -0.71 | glycan array binding signal (z-score) [14]: -1.03 | glycan array binding signal (z-score) (GlcNAc(b1-3)GalNAc): 0.155 | glycan array binding signal (z-score) (GlcNAc(b1-3)Man): -0.254 | glycan array binding signal (z-score) [15]: -0.383 | glycan array binding signal (z-score) [16]: -0.177 | glycan array binding signal (z-score) [17]: 0.207 | glycan array binding signal (z-score) [18]: -1.13 | glycan array binding signal (z-score) (GlcNAc(b1-4)GlcNAc): -0.192 | glycan array binding signal (z-score) [19]: -2.04 | glycan array binding signal (z-score) [20]: 0.586 | glycan array binding signal (z-score) [21]: -0.762 | glycan array binding signal (z-score) [22]: -0.652 | glycan array binding signal (z-score) [23]: -1.58 | glycan array binding signal (z-score) (GlcNAc(b1-6)GalNAc): 0.016 | glycan array binding signal (z-score) [24]: 1.24 | glycan array binding signal (z-score) (Kdn(a2-3)Gal(b1-3)GalNAc): -0.052 | glycan array binding signal (z-score) (Kdn(a2-3)Gal(b1-3)GlcNAc): 0.784 | glycan array binding signal (z-score) (Kdn(a2-3)Gal(b1-4)Glc): -0.495 | glycan array binding signal (z-score) (Kdn(a2-3)Gal(b1-4)GlcNAc): -0.412 | glycan array binding signal (z-score) [25]: -1.54 | glycan array binding signal (z-score) (Kdn(a2-6)Gal(b1-4)GlcNAc): -0.651 | glycan array binding signal (z-score) [26]: -0.835 | glycan array binding signal (z-score) [27]: -1.18 | glycan array binding signal (z-score) (Man(a1-2)Man(a1-3)Man): -0.772 | glycan array binding signal (z-score) [28]: -0.434
